Drawing on publication PMC5802837, “Lymphocyte-specific protein 1 regulates mechanosensory oscillation of podosomes and actin isoform-based actomyosin symmetry breaking” (Nature Communications, 2018), this text covers binding for one substance.

Protein sequences, listed by entry. Tags and fused reporters are not part of them.
UniProt Q15746: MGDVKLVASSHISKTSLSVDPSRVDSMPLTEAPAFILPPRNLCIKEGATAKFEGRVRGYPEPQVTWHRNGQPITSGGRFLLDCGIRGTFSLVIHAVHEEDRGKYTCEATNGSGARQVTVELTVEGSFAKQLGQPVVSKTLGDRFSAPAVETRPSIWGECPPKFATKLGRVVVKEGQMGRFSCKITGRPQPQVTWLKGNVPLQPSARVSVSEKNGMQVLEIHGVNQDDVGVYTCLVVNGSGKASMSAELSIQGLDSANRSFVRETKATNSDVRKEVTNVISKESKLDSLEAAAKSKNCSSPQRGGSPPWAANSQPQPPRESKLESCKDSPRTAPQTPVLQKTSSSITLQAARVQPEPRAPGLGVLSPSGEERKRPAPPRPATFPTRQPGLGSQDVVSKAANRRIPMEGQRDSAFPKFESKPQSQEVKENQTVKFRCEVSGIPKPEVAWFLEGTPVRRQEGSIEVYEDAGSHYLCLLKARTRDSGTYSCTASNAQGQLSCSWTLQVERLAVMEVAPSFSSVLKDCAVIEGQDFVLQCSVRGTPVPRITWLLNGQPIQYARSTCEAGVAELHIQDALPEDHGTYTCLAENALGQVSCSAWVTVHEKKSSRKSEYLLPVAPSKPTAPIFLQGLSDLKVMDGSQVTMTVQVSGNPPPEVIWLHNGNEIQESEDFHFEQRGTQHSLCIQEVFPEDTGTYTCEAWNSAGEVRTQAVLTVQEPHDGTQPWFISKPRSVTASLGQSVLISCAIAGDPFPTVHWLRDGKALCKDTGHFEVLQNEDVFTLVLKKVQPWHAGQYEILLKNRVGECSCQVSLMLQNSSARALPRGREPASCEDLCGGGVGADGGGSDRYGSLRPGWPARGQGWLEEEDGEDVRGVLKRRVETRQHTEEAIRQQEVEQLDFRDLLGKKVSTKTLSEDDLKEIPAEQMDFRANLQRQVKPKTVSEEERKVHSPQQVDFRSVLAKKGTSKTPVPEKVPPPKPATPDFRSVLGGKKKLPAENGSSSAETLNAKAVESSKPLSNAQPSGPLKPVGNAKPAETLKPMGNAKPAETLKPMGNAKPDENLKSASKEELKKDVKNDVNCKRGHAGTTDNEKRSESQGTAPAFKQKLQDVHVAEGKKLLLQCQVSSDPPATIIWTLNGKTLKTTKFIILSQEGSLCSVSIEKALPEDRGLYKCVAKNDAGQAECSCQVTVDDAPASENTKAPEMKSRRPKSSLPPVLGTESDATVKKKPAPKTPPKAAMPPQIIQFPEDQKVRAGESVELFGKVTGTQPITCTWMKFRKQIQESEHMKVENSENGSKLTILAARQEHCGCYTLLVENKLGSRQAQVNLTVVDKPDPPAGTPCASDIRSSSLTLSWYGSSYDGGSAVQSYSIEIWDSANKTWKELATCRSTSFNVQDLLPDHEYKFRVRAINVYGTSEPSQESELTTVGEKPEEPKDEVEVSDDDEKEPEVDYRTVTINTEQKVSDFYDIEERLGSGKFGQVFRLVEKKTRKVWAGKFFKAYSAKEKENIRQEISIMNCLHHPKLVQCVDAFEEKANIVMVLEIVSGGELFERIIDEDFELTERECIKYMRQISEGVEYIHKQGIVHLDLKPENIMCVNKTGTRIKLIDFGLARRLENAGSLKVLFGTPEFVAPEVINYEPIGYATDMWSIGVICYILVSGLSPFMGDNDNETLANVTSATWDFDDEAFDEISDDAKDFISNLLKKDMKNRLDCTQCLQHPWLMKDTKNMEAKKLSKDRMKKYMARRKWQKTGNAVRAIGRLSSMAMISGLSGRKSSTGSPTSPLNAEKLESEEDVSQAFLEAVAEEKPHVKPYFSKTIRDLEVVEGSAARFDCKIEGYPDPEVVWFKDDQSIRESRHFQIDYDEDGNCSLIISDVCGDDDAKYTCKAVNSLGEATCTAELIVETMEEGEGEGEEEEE

The test has as its target T1, supervillin construct SV1-830-GFP (UniProt O46385-2 1-830).
T1 construct: supervillin, N-terminal region, residues 1-830; as far as recalled the Luna laboratory constructs are bovine supervillin; also called GFP-SV1-830; GFP-supervillin 1-830; source: primary human macrophages, transfected, in lysate
The test is described as follows: co-IP; anti-GFP immunoprecipitation (µMACS anti-GFP Microbeads) from lysates of macrophages expressing GFP-fused constructs (500 mM NaCl, 2% Triton X-100, 50 mM Tris-HCl pH 8.0), washes with RIPA and high-salt RIPA; GFP alone as control; western blot of endogenous partners, densitometry. In general terms: In western blotting, separated proteins are transferred to a membrane and probed.

Results are given in words; binding and its absence hold for the method and conditions named. In cells and extracts the contact can be indirect. A result given as binding can be weak or reduced; the word gives no strength.

Turning to “long form of myosin light chain kinase (L-MLCK), endogenous (from UniProt Q15746 1-1914) (enzyme)”, the binding entry was “binds”.
